Experimental data reported in paper PMC8169803.
Read-outs that look alike come from different tables or passages of the source. These are yes or no findings as the source states them, for the method shown. Binding seen in cells or lysates may run through a third protein. Here binding means that the protein was enriched with, or labelled near, the bait; the list need not be complete. For some assays here: A no says only that the protein was not detected with the bait. For some assays here: Sequences can lack the tags named with a protein. Values belong to the molecule of their own block, whether it stands above or below them.

Sequences of proteins named here, by UniProt entry; tags and fusion partners are left off.
UniProt Q93009: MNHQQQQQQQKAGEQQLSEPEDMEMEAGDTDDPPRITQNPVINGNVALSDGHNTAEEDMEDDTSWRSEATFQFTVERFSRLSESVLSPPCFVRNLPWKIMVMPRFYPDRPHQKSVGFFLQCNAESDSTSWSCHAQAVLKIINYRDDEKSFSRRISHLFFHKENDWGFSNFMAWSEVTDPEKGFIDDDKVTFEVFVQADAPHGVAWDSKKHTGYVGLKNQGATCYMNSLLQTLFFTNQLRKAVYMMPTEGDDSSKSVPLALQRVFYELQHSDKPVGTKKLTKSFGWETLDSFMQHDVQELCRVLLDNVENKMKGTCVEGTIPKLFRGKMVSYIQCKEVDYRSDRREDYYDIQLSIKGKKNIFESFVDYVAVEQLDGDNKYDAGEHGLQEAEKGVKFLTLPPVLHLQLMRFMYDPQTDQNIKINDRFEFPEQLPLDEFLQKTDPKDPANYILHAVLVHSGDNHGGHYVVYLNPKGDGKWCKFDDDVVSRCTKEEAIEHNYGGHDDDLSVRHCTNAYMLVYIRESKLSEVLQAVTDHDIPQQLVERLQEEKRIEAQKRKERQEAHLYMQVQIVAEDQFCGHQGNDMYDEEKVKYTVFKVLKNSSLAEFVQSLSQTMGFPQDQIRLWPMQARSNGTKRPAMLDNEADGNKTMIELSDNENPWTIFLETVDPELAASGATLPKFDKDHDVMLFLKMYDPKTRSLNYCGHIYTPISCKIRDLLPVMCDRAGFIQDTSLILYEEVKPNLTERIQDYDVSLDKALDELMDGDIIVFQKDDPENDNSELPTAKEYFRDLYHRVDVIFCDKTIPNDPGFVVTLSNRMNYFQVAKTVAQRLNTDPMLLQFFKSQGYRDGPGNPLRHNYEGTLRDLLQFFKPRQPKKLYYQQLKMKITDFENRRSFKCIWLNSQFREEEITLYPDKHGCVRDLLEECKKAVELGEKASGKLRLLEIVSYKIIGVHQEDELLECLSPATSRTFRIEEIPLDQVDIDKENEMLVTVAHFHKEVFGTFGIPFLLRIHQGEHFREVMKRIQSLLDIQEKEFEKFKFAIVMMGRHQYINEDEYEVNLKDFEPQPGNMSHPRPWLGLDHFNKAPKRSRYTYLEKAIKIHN
UniProt Q99496: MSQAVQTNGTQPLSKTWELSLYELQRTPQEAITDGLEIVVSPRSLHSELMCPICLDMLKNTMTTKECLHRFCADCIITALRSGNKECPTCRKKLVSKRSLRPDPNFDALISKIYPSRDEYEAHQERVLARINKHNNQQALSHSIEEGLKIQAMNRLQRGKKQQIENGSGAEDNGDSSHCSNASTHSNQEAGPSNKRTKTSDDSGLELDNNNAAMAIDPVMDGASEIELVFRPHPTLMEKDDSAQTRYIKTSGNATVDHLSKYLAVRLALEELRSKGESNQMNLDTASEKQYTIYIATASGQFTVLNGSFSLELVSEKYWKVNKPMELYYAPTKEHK
UniProt Q9BSM1: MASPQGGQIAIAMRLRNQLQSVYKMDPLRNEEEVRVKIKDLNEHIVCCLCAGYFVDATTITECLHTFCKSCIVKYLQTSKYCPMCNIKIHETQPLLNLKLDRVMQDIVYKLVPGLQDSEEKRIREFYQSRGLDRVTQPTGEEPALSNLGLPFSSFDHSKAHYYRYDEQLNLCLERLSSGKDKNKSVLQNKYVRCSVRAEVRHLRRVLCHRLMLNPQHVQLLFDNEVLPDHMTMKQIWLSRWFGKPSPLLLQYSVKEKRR
UniProt Q9HC52: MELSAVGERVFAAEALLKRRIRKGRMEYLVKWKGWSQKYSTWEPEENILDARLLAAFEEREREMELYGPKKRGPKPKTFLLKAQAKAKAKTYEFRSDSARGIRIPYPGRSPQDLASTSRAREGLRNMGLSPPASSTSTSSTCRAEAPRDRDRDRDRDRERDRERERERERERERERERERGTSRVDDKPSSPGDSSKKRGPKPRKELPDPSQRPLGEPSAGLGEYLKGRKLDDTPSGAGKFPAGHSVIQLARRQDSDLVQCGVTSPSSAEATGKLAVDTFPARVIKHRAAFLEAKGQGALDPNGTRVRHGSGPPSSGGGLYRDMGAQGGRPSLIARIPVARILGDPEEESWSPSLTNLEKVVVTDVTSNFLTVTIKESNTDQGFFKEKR
UniProt Q9UQR0: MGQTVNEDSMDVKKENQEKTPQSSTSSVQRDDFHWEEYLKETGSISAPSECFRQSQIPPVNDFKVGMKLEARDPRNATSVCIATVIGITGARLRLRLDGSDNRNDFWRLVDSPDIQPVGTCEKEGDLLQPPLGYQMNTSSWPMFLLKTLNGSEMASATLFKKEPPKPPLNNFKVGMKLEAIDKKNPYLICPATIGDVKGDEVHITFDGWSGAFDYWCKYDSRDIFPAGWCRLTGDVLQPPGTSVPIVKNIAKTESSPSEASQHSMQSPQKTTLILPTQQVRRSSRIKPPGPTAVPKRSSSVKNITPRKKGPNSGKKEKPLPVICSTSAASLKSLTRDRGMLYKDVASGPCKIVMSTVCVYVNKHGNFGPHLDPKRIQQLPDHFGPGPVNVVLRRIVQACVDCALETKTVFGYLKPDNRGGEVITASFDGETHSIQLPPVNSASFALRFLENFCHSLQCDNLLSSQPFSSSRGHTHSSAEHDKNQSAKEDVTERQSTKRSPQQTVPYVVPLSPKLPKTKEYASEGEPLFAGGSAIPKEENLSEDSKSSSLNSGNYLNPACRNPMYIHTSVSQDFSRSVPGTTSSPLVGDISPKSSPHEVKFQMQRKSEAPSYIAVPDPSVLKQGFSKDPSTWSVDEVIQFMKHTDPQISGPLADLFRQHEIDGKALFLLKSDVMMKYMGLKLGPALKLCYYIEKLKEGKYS
UniProt P49915: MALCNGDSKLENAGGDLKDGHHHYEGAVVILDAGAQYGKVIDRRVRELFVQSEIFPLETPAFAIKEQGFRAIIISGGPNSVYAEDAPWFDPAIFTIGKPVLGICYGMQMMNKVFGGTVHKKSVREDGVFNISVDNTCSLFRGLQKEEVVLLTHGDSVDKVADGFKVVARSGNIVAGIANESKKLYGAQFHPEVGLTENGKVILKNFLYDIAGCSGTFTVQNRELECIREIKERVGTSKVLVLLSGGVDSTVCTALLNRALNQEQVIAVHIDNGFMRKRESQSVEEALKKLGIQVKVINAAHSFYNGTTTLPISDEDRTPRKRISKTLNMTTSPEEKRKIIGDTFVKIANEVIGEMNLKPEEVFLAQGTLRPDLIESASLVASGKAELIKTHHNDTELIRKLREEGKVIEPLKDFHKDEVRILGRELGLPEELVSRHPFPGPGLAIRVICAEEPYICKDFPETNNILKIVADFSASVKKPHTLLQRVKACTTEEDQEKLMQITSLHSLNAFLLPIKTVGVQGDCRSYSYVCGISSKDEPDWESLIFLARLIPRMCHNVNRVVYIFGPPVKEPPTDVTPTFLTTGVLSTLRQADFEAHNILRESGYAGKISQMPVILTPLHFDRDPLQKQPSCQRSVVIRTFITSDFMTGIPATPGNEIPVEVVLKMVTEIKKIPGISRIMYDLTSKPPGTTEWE
UniProt Q5H9F3: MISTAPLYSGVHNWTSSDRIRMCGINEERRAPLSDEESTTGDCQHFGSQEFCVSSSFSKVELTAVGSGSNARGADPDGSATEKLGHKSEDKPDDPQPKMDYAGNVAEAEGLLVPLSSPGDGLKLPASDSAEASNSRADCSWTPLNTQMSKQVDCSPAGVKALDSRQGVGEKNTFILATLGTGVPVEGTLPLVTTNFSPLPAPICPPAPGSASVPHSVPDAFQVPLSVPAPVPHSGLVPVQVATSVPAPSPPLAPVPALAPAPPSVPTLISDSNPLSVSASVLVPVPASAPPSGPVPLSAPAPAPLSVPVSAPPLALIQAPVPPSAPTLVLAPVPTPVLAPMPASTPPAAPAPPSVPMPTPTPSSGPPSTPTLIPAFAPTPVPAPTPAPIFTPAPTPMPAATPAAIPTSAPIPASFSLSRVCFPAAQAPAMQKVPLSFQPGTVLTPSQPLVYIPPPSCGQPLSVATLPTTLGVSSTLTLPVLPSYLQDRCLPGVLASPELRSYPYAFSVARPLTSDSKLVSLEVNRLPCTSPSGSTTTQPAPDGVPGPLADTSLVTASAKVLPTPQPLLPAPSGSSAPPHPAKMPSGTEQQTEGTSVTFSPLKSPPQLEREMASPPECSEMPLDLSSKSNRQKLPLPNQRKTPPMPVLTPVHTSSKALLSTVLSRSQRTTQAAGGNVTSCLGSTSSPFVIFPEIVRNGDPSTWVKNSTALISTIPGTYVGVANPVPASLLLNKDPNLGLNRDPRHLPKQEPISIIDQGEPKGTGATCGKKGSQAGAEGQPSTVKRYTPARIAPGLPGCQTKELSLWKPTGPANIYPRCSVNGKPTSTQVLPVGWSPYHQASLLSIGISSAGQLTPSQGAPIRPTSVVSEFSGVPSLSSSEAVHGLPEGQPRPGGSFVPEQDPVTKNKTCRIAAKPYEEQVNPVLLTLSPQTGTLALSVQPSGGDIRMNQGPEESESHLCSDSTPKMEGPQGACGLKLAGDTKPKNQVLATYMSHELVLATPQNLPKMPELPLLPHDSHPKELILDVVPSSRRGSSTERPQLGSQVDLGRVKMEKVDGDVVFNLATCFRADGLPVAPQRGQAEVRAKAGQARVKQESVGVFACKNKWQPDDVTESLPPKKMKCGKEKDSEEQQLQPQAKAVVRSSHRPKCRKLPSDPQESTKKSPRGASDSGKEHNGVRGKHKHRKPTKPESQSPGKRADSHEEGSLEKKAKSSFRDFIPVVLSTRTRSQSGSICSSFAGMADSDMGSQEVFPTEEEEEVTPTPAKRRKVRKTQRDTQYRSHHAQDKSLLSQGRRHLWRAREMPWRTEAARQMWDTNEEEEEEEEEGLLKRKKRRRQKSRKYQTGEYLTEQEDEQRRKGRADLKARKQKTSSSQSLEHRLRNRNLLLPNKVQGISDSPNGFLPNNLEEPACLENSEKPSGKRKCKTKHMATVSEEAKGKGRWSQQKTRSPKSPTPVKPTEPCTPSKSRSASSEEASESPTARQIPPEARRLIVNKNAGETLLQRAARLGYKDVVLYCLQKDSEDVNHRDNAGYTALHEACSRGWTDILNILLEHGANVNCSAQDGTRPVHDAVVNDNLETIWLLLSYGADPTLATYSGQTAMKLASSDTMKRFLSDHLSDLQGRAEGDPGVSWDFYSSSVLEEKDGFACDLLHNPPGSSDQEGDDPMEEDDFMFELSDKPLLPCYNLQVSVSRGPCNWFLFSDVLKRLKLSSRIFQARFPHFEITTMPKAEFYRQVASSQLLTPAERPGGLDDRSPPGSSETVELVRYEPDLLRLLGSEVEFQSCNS
UniProt Q06587: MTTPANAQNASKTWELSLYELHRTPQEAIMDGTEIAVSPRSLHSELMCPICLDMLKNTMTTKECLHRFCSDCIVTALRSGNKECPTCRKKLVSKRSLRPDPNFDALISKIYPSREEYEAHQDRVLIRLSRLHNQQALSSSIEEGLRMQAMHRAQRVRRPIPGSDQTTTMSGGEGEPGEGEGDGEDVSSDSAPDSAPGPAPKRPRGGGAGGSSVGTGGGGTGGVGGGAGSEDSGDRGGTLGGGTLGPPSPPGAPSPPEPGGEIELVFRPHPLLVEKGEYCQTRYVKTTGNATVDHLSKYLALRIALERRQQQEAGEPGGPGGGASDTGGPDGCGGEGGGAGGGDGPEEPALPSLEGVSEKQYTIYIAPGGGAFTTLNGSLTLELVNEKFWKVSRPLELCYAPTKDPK
UniProt P63208: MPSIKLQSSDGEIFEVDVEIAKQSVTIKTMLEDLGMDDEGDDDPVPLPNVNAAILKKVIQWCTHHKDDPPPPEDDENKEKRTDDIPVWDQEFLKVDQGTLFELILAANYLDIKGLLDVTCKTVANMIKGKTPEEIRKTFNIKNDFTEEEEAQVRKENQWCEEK

Legend:
[1] = target: GFP-TEV-FLAG-3C-USP7 fusion (UniProt Q93009); experiment: affinity purification with mass spectrometry; GFP-Trap magnetic agarose pull outs on nuclear extracts of K562 cells stably expressing the GFP fusion, 1 h at 4°C, six washes in TBS with 0.3% IGEPAL CA-630; bound fraction analysed by LC-MS/MS; for GFP-RING1B and PCGF1-GFP also from cells treated with DMSO or P22077
GFP-RING1B [2] = target: GFP-RING1B (UniProt Q99496); experiment: as above
PCGF1-GFP = PCGF1-GFP (UniProt Q9BSM1); experiment: as above
GFP-RING1B [3] = target: GFP-RING1B (UniProt Q99496); experiment: condition: only cells treated with the USP7 inhibitor P22077; affinity purification with mass spectrometry; GFP pull outs on nuclear extracts of K562 GFP-RING1B cells treated with the USP7 inhibitor P22077, LC-MS/MS, label-free quantification
[4] = target: T1, KDM2B-GFP (wild-type KDM2B, long form) (UniProt Q8NHM5); experiment: affinity purification with mass spectrometry; GFP-Trap magnetic agarose pull outs on nuclear extracts of K562 cells stably expressing the GFP fusion, 1 h at 4°C, six washes in TBS with 0.3% IGEPAL CA-630; bound fraction analysed by LC-MS/MS; for GFP-RING1B and PCGF1-GFP also from cells treated with DMSO or P22077
T1 sequence: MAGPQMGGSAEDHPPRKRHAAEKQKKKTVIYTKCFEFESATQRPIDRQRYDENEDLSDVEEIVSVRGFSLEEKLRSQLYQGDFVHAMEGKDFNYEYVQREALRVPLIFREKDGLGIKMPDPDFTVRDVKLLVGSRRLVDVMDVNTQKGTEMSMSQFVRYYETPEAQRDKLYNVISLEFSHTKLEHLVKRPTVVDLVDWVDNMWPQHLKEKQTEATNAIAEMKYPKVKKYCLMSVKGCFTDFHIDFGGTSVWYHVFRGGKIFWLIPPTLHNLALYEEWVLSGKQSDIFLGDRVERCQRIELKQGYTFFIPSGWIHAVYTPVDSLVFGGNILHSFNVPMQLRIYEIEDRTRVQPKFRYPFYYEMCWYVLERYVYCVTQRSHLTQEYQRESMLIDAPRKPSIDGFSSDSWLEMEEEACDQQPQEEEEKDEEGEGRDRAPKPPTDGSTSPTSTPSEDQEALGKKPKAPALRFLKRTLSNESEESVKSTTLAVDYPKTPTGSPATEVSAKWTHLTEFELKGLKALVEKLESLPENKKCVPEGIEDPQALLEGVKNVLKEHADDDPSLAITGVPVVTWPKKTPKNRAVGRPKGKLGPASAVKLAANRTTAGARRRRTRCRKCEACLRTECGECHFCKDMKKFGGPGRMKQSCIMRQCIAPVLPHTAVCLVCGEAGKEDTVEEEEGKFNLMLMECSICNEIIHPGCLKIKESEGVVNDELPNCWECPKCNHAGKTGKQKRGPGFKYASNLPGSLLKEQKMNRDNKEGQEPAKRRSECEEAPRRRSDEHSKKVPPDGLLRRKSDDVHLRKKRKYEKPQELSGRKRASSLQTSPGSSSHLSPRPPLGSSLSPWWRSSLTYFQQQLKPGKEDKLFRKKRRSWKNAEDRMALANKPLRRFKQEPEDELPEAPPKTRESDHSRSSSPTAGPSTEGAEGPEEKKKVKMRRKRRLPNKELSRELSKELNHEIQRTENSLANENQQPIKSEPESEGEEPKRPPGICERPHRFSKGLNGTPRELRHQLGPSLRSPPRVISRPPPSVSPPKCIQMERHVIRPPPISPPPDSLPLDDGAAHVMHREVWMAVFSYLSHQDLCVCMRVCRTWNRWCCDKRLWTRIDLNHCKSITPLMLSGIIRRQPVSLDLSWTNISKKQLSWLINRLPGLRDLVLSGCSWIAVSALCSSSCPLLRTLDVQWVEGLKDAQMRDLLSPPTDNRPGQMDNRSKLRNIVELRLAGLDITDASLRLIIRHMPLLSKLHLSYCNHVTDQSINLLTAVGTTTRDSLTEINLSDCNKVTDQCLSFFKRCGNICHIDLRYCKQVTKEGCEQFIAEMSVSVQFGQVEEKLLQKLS

KDM2BΔ(CxxC)-GFP = KDM2BΔ(CxxC)-GFP (UniProt Q8NHM5); experiment: as above
KDM2BΔ(LRR)-GFP = KDM2BΔ(LRR)-GFP (UniProt Q8NHM5); experiment: as above
KDM2BΔ(PHD)-GFP = KDM2BΔ(PHD)-GFP (UniProt Q8NHM5); experiment: as above
[5] = target: GFP-TEV-FLAG-3C-USP7 fusion (UniProt Q93009); experiment: as above; remark: listed apart in the source

Molecule: PCGF1, endogenous (from UniProt Q9BSM1 1-259)
binding [1]: binds

Molecule: BCOR, endogenous (from UniProt Q6W2J9 1-1755)
binding [1]: binds

Molecule: CBX8, endogenous (from UniProt Q9HC52 1-389)
binding [1]: binds

Molecule: USP7 (ubiquitin-specific peptidase 7), endogenous (from UniProt Q93009 1-1102) (enzyme)
binding (GFP-RING1B [2]): binds | binding (PCGF1-GFP): binds

B3: YAF2, endogenous (protein, UniProt Q8IY57 1-180)
chain: MGDKKSPTRPKRQPKPSSDEGYWDCSVCTFRNSAEAFKCMMCDVRKGTSTRKPRPVSQLVAQQVTQQFVPPTQSKKEKKDKVEKEKSEKETTSKKNSHKKTRPRLKNVDRSSAQHLEVTVGDLTVIITDFKEKTKSPPASSAASADQHSQSGSSSDNTERGMSRSSSPRGEASSLNGESH
binding [5]: binds

Now from value to molecule:

binding (GFP-RING1B [3]): no binding | binding (GFP-RING1B [2]): binds | binding [1]: binds
Molecule: SCML2, endogenous (from UniProt Q9UQR0 1-700)

binding [1]: binds
Molecule: GMPS, endogenous (from UniProt P49915 1-693) (enzyme)

binding [1]: binds
Molecule: BCORL1, endogenous (from UniProt Q5H9F3 1-1785)

binding (GFP-RING1B [2]): no binding | binding [1]: binds | binding [4]: binds | binding (PCGF1-GFP): binds
Molecule: RING1A, endogenous (from UniProt Q06587 1-406)

binding [1]: binds | binding [4]: binds | binding (KDM2BΔ(CxxC)-GFP): binds | binding (KDM2BΔ(LRR)-GFP): binds | binding (KDM2BΔ(PHD)-GFP): binds
Molecule: SKP1, endogenous (from UniProt P63208 1-163)

binding [1]: binds
Molecule: RING1B, endogenous (from UniProt Q99496 1-336)

binding [5]: binds
B1: FBXO38, endogenous (protein, UniProt Q6PIJ6 1-1188)
chain: MGPRKKSVKTCIMNNEIPEEMTADETKDYMNQLSHEVLCHIFRYLPLQDIMCMECLSRKLKEAVTLYLRVVRVVDLCAGRWWEYMPSGFTDASFLTLLKKMPDVEQLYGLHPRYLERRRVRGHEAFSIPGVLEALQACPNLVGVETSHLELVESIWTYMPHVHILGKFRNRNGAFPIPPENKLKIPIGAKIQTLHLVGVNVPEIPCIPMLRHLYMKWVRLTKPQPFKDFLCISLRTFVMRNCAGPTNSLKYVPLVTGLASARNLEHLEMVRVPFLGGLIQHVVEDSWRSGGFRNLHTIVLGACKNALEVDLGYLIITAARRLHEVRIQPSLTKDGVFSALKMAELEFPQFETLHLGYVDEFLLQSRMANADLVKYGLADVVENPGIITDIGMKAVNEVFSCIKYLAIYNCPHLHNPYNWISDHSRWTRLVDINLVRCHALKLDSFGQFIELLPSLEFISLDQMFREPPKGCARVGLSAGTGIGVSSALVSNQNSNNDDNNAQNNNANIHDNNHHHPDDSDEENDFRQDLQPGEQQFAADALNEMEDIVQEDGEVVAESGNNTPAHSQAIIPVDVDEEQAGPSGLQRVVKPTSITVHDSESDDEEDSLELQEVWIPKNGTRRYSEREEKTGESVQSRELSVSGKGKTPLRKRYNSHQMGQSKQFPLEESSCEKGCQVTSEQIKADMKAARDIPEKKKNKDVYPSCSSTTASTVGNSSSHNTASQSPDFVRTVNSGGSSEPSPTEVDVSRQCACSPGGSEDSEAMEEGDAESSVCPRCCCHRPQESQRRTSRCSDEERPSTSRACVVNGPDGTRSAFSFRTLPQGGSSGPAHDERTNGSGSGATGEDRRGSSQPESCDVQSNEDYPRRPLTRARSRLSHVLLVSESEVAKTKPRHAMKRKRTADKSTSTSDPVIEDDHVQVLVLKSKNLVGVTMTNCGITDLVLKDCPKMMFIHATRCRVLKHLKVENAPIVNRFDYAQCKKLNMDQVLDQILRMPPERNRIIYLRPMQQVDTLTLEQKLFSGPYPYHICIIHEFSNPPNVRNKVRIRSWMDTIANINQELIKYEFFPEATRSEEDLKKYPKYPWGREIYTLEGVVDGAPYSMISDFPWLRSLRAAEPNSFARYDFEDDEESTIYAPRRKGQLSADICMETIGEEISEMRQMKKGVFQRVVAIFIHYCDVNGEPVEDDYI

binding [5]: binds
B2: RYBP, endogenous (protein, UniProt Q8N488 1-228)
chain: MTMGDKKSPTRPKRQAKPAADEGFWDCSVCTFRNSAEAFKCSICDVRKGTSTRKPRINSQLVAQQVAQQYATPPPPKKEKKEKVEKQDKEKPEKDKEISPSVTKKNTNKKTKPKSDILKDPPSEANSIQSANATTKTSETNHTSRPRLKNVDRSTAQQLAVTVGNVTVIITDFKEKTRSSSTSSSTVTSSAGSEQQNQSSSGSESTDKGSSRSSTPKGDMSAVNDESF
